Where no end group is shown, it is not given here.
Assay: general procedure: peptide synthesis; chloro trityl chloride resin
Details: whole synthesis

Substance: Ac-YKSKKGGWTH
- crude mass: 1.18 g
- crude yield (scale of the general procedure 700 mg resin): 72.6%

Source: US8501689B2 (Caragen Co., Ltd., priority 2008, dated 2013)
